These are yes or no findings as the source states them, for the method shown. Some entries that bind do so weakly or less than the wild type.
B2: IL-20/IL-20R2 binary complex (other)
chain 1: MLKTLNLGSCVIATNLQEIRNGFSEIRGSVQAKDGNIDIRILRRTESLQDTKPANRCCLLRHLLRLYLDRVFKNYQTPDHYTLRKISSLANSFLTIKKDLRLCHAHMTCHCGEEAMKKYSQILSHFEKLEPQAAVVKALGELDILLQWMEETE
chain 2: DEVAILPAPQQLSVLSTNMKHLLMWSPVIAPGETVYYSVEYQGEYESLYTSHIWIPSSWCSLTEGPECDVTDDITATVPYNLRVRATLGSQTSAWSILKHPFNRQSTILTRPGMEITKDGFHLVIELEDLGPQFEFLVAYWRREPGAEEHVKMVRSGGIPVHLETMEPGAAYCVKAQTFVKAIGRYSAFSQTECVEVQGEA
notes: also called 20 + 20R2; IL-20+soluble IL-20R2

By UniProt entry, the sequences of proteins in these tests, tags left out. Where a name states a change or a piece, a line headed by the entry shows the natural chain unless it says otherwise.
UniProt Q6UXL0: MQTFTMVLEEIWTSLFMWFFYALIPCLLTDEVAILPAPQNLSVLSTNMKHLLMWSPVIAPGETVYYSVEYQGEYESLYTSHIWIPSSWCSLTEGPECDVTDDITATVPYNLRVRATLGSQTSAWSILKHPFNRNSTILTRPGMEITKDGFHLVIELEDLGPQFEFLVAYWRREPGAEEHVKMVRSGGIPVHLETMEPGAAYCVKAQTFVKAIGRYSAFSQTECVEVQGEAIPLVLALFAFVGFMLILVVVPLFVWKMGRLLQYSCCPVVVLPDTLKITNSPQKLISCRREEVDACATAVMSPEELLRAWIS

Key:
[1] = target: T1, IL-19/IL-20R2 binary complex (human) (UniProt Q9UHD0); experiment: SPR, IL-19 (250 nM) + IL-20R1 (425 nM) over an IL-20R2 coupled chip
T1 sequence 1: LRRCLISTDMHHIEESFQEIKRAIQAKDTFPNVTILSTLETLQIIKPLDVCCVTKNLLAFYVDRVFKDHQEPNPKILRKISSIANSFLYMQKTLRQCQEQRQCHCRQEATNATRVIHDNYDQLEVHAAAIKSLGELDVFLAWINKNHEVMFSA
T1 sequence 2: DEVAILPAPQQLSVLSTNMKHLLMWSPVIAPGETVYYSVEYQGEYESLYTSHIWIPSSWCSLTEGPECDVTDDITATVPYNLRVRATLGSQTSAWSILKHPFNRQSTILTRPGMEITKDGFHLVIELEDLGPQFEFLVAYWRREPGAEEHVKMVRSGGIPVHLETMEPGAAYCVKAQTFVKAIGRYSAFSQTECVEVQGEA

[2] = target: B2; experiment: SPR, IL-20 (250 nM) + IL-20R1 (425 nM) over an IL-20R2 coupled chip
[3] = target: T1, IL-19/IL-20R2 binary complex (human); experiment: glutaraldehyde cross-linking of soluble complexes at 5 µM, SDS-PAGE
[4] = target: B2; experiment: as above
[5] = target: T1, IL-19/IL-20R2 binary complex (human); experiment: glutaraldehyde cross-linking of IL-19/IL-20R1/IL-20R2 (5 µM, 30 min), 15% SDS-PAGE; middle gel (FIG. 11B of the legend)
[6] = target: B2; experiment: glutaraldehyde cross-linking of IL-20/IL-20R1/IL-20R2 (5 µM, 30 min), 15% SDS-PAGE; bottom gel (FIG. 11C of the legend)
[7] = target: T1, IL-19/IL-20R2 binary complex (human); experiment: SPR, IL-19 (250 nM) co-injected with soluble IL-20R1 (425 nM) over an IL-20R2 coupled Biacore chip; ternary complex formation
[8] = target: B2; experiment: SPR, IL-20 (250 nM) co-injected with soluble IL-20R1 (425 nM) over an IL-20R2 coupled Biacore chip; ternary complex formation
[9] = target: T2, IL-22R1 (sIL-22R1DDQ) (Homo sapiens (Human)) (UniProt Q8N6P7); experiment: SPR, IL-20 (1000 to 31.25 nM, 2-fold dilutions) co-injected with soluble IL-20R2 (fixed at 500 nM) over an IL-22R1 coupled surface
T2 sequence: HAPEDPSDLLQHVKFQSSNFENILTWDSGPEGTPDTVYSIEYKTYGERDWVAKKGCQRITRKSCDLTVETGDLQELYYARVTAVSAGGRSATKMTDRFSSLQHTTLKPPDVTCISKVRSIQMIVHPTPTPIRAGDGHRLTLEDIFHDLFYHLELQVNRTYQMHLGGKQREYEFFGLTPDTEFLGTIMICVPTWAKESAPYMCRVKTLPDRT

[10] = target: T3, IL-20R1-FC; experiment: SPR, IL-20 (1000 to 31.25 nM, 2-fold dilutions) co-injected with soluble IL-20R2 (fixed at 500 nM) over an IL-20R1-FC coupled surface
T3 construct: also called IL-20R-fc
T3 chain: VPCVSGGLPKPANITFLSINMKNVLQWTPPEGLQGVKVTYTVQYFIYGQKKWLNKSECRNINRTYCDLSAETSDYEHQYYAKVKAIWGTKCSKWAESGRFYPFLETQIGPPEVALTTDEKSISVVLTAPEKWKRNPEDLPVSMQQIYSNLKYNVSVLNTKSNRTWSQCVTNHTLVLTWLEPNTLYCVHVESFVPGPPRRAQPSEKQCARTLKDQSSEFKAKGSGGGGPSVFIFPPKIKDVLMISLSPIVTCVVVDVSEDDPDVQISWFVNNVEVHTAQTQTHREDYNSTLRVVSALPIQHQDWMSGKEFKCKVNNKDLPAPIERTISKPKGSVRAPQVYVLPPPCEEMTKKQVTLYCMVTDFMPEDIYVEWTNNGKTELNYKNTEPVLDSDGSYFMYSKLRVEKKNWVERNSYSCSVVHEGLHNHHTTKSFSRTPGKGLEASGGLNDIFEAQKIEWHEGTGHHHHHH

[11] = target: B2; experiment: SPR, IL-20 (250 nM) co-injected with the IL-20R1 site 3 mutant M3 (425 nM) over an IL-20R2 coupled Biacore chip
[12] = target: IL-20R2-FC; experiment: SPR, IL-19 over IL-20R2 (FIG. 12C)
[13] = target: T4, soluble IL-20R2 (Homo sapiens (Human)) (UniProt Q6UXL0); experiment: glutaraldehyde cross-linking of soluble complexes at 5 µM, SDS-PAGE
T4 sequence: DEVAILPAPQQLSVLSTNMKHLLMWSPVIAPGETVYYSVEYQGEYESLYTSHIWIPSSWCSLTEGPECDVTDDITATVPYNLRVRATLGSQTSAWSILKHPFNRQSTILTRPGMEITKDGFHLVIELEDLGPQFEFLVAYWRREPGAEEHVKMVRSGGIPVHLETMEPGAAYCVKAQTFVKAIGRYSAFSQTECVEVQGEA

[14] = target: T4, soluble IL-20R2 (Homo sapiens (Human)); experiment: glutaraldehyde cross-linking of IL-19/IL-20R2 (5 µM, 30 min), 15% SDS-PAGE; top gel 'IL-19/IL-20R2 x-linking' (FIG. 11A of the legend)
[15] = target: T4, soluble IL-20R2 (Homo sapiens (Human)); experiment: glutaraldehyde cross-linking of IL-19/IL-20R1/IL-20R2 (5 µM, 30 min), 15% SDS-PAGE; middle gel 'IL-19/IL-20R1/IL-20R2 x-linking' (FIG. 11B of the legend)
[16] = target: T4, soluble IL-20R2 (Homo sapiens (Human)); experiment: glutaraldehyde cross-linking of IL-20/IL-20R1/IL-20R2 (5 µM, 30 min), 15% SDS-PAGE; bottom gel 'IL-20/IL-20R1/IL-20R2 x-linking' (FIG. 11C of the legend)
[17] = target: T2, IL-22R1 (sIL-22R1DDQ) (Homo sapiens (Human)); experiment: SPR, IL-19 (1000 to 31.25 nM, 2-fold dilutions) co-injected with soluble IL-20R2 (fixed at 500 nM) over an IL-22R1 coupled surface

B1: soluble IL-20R1 (receptor)
chain: VPCVSGGLPKPANITFLSINMKNVLQWTPPEGLQGVKVTYTVQYFIYGQKKWLNKSECRNINRTYCDLSAETSDYEHQYYAKVKAIWGTKCSKWAESGRFYPFLETQIGPPEVALTTDEKSISVVLTAPEKWKRNPEDLPVSMQQIYSNLKYNVSVLNTKSNRTWSQCVTNHTLVLTWLEPNTLYCVHVESFVPGPPRRAQPSEKQCARTLKDQSS
binding [1]: binds
binding [2]: binds
binding [3]: binds
binding [4]: binds
binding [5]: binds
binding [6]: binds
binding [7]: binds
binding [8]: binds

B2
binding [9]: binds
binding [10]: binds

B3: IL-20R1 triple mutant M3 (receptor, UniProt Q9UHF4 29-245, looked up)
chain: AVPCVSGGLPKPANITFLSINMKNVLQWTPPEGLQGVKVTYTVQYFIYGQKKWLNKSECRNINRTYCDLSAETSDYEHQYYAKVKAIWGTKCSKWAESGRFYPFLETQIGPPEVALTTDEKSISVVLTAPEKWKRNPEDLPVSMQQIYSNLKYNVSVLNTKANRTASQCVTNHTLVLTALEPNTLYCVHVESFVPGPPRRAQPSEKQCARTLKDQSS
binding [11]: binds

B4: IL-19 (ligand)
chain: LRRCLISTDMHHIEESFQEIKRAIQAKDTFPNVTILSTLETLQIIKPLDVCCVTKNLLAFYVDRVFKDHQEPNPKILRKISSIANSFLYMQKTLRQCQEQRQCHCRQEATNATRVIHDNYDQLEVHAAAIKSLGELDVFLAWINKNHEVMFSA
binding [12]: binds
binding [13]: binds
binding [14]: binds
binding [15]: binds

B5: IL-20 (ligand)
chain: MLKTLNLGSCVIATNLQEIRNGFSEIRGSVQAKDGNIDIRILRRTESLQDTKPANRCCLLRHLLRLYLDRVFKNYQTPDHYTLRKISSLANSFLTIKKDLRLCHAHMTCHCGEEAMKKYSQILSHFEKLEPQAAVVKALGELDILLQWMEETE
notes: The crystal model holds residues 24-176; also called Interleukin-20; IL-20b
binding [16]: binds

B6: IL-19/IL-20R2 binary complex (other)
chain 1: LRRCLISTDMHHIEESFQEIKRAIQAKDTFPNVTILSTLETLQIIKPLDVCCVTKNLLAFYVDRVFKDHQEPNPKILRKISSIANSFLYMQKTLRQCQEQRQCHCRQEATNATRVIHDNYDQLEVHAAAIKSLGELDVFLAWINKNHEVMFSA
chain 2: DEVAILPAPQQLSVLSTNMKHLLMWSPVIAPGETVYYSVEYQGEYESLYTSHIWIPSSWCSLTEGPECDVTDDITATVPYNLRVRATLGSQTSAWSILKHPFNRQSTILTRPGMEITKDGFHLVIELEDLGPQFEFLVAYWRREPGAEEHVKMVRSGGIPVHLETMEPGAAYCVKAQTFVKAIGRYSAFSQTECVEVQGEA
notes: IL-19 with IL-20R2 that carries no FC: amine coupled on the chip, or soluble; also called IL-19+soluble IL-20R2
binding [17]: no binding (tested: 1000 nM IL-19 with 500 nM IL-20R2)
